Experimental data taken from the supplement of paper PMC4604168 (melanoma cell lines).
Some of the results follow. Repeats are few or missing, and single values can be far off.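 Cells were imaged in 1,536-well plates, and nuclei stained with an antibody against cleaved PARP were counted against all DNA-stained nuclei to give the apoptosis fraction. Screening doses were chosen to leave most cells alive, and resting and induced cleaved-PARP levels differ strongly between cell lines.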

What was measured:
Assay in all cases: cleaved PARP positive nuclei fraction relative to DMSO control; melanoma cells; higher = more apoptosis
Details in all cases: library dose: low library concentration; 72 h
MZ2-MEL = tested on: MZ2-MEL
MeWo = tested on: MeWo
RPMI7951 = tested on: RPMI7951
RVH-421 = tested on: RVH-421
SkMel28 = tested on: SkMel28
SkMel30 = tested on: SkMel30
UACC62 = tested on: UACC62
SkMel2 = tested on: SkMel2
SkMel5 = tested on: SkMel5
UACC257 = tested on: UACC257

SMILES | cleaved PARP positive nuclei fraction (MZ2-MEL) [%] | cleaved PARP positive nuclei fraction (MeWo) [%] | cleaved PARP positive nuclei fraction (RPMI7951) [%] | cleaved PARP positive nuclei fraction (RVH-421) [%] | cleaved PARP positive nuclei fraction (SkMel28) [%] | cleaved PARP positive nuclei fraction (SkMel30) [%] | cleaved PARP positive nuclei fraction (UACC62) [%] | cleaved PARP positive nuclei fraction (SkMel2) [%] | cleaved PARP positive nuclei fraction (SkMel5) [%] | cleaved PARP positive nuclei fraction (UACC257) [%]
CCCCCCCCCCCCCCCCCCOP(=O)([O-])OC1CC[N+](C)(C)CC1 [Perifosine] + C[C@]12O[C@H](C[C@]1(O)CO)n1c3ccccc3c3c4c(c5c6ccccc6n2c5c31)CNC4=O [Lestaurtinib] (first compound 0.4 µM, partner dose 0.004 µM) | 202 | 113 | 90.2 | 95.2 | 119 | 16.3 | 110 |  |  | 
N.N.[Cl][Pt][Cl] [cisplatin] + CO[C@H]1C[C@@H]2CC[C@@H](C)[C@@](O)(O2)C(=O)C(=O)N2CCCC[C@H]2C(=O)O[C@H]([C@H](C)C[C@@H]2CC[C@@H](OCCO)[C@H](OC)C2)CC(=O)[C@H](C)/C=C(\C)[C@@H](O)[C@@H](OC)C(=O)[C@H](C)C[C@H](C)/C=C/C=C/C=C/1C [everolimus] (first compound 1.6 µM, partner dose 0.02 µM) | 199 | 112 | 37.9 | 126 | 114 | 68.5 | 431 |  |  | 
C[C@]12O[C@H](C[C@]1(O)CO)n1c3ccccc3c3c4c(c5c6ccccc6n2c5c31)CNC4=O [Lestaurtinib] + C=C(c1ccc(C(=O)O)cc1)c1cc2c(cc1C)C(C)(C)CCC2(C)C [Bexarotene] (first compound 0.004 µM, partner dose 2 µM) | 41.9 | 157 | 79.1 | 172 | 102 | 43.6 | 74.3 |  |  | 
CC[C@]1(O)C[C@H]2CN(CCc3c([nH]c4ccccc34)[C@@](C(=O)OC)(c3cc4c(cc3OC)N(C=O)[C@H]3[C@@](O)(C(=O)OC)[C@H](OC(C)=O)[C@]5(CC)C=CCN6CC[C@]43[C@@H]65)C2)C1 [vincristine] + C[C@]12O[C@H](C[C@]1(O)CO)n1c3ccccc3c3c4c(c5c6ccccc6n2c5c31)CNC4=O [Lestaurtinib] (first compound 0.0001 µM, partner dose 0.004 µM) | 138 | 253 | 186 | 160 | 114 | 136 | 246 |  |  | 
C[C@]12O[C@H](C[C@]1(O)CO)n1c3ccccc3c3c4c(c5c6ccccc6n2c5c31)CNC4=O [Lestaurtinib] + CC(=O)O[C@@]12CO[C@@H]1C[C@H](O)[C@@]1(C)C(=O)[C@H](O)C3=C(C)[C@@H](OC(=O)[C@H](O)[C@@H](NC(=O)OC(C)(C)C)c4ccccc4)C[C@@](O)([C@@H](OC(=O)c4ccccc4)[C@H]21)C3(C)C [Docetaxel] (first compound 0.004 µM, partner dose 0.0001 µM) | 102 | 402 | 78.5 | 235 | 180 | 378 | 648 |  |  | 
C[C@]12O[C@H](C[C@]1(O)CO)n1c3ccccc3c3c4c(c5c6ccccc6n2c5c31)CNC4=O [Lestaurtinib] + Cn1c(=O)n(-c2ccc(C(C)(C)C#N)cc2)c2c3cc(-c4cnc5ccccc5c4)ccc3ncc21 [NVP-BEZ235] (first compound 0.004 µM, partner dose 0.004 µM) | 123 | 81.7 | 44.1 | 167 | 87.5 | 51.9 | 68.8 |  |  | 
CN1CCN(c2ccc3nc(-c4c(N)c5c(F)cccc5[nH]c4=O)[nH]c3c2)CC1 [Dovitinib] + Cc1cc(SCc2sc(-c3ccc(C(F)(F)F)c(F)c3)nc2C)ccc1OCC(=O)O [GW0742] (first compound 0.1 µM, partner dose 2 µM) |  | 129 | 68.6 | 28.2 | 77.2 | 69.4 | 150 | 135 | 83.1 | 37.7
Cc1cc(SCc2sc(-c3ccc(C(F)(F)F)c(F)c3)nc2C)ccc1OCC(=O)O + O=c1cc(-c2cccc3c2Sc2ccccc2S3)oc(N2CCOCC2)c1 [KU55933] (first compound 2 µM, partner dose 1 µM) |  | 51.3 | 73.9 | 82.4 | 40.4 | 309 | 101 |  | 115 | 31
C[C@]12O[C@H](C[C@]1(O)CO)n1c3ccccc3c3c4c(c5c6ccccc6n2c5c31)CNC4=O [Lestaurtinib] + NC1(c2ccc(-c3nc4ccn5c(=O)[nH]nc5c4cc3-c3ccccc3)cc2)CCC1 [MK2206] (first compound 0.004 µM, partner dose 0.4 µM) | 162 | 423 | 40.6 | 357 | 54.3 | 147 | 88.4 |  |  | 
NC(=O)c1ccc(N(C(N)=O)c2c(F)cccc2F)nc1-c1ccc(F)cc1F + C[C@]12O[C@H](C[C@]1(O)CO)n1c3ccccc3c3c4c(c5c6ccccc6n2c5c31)CNC4=O [Lestaurtinib] (first compound 0.4 µM, partner dose 0.004 µM) | 31.9 | 97.1 | 98.3 | 63.1 | 67.5 | 91.1 | 253 |  |  | 
CO[C@H]1C[C@@H]2CC[C@@H](C)[C@@](O)(O2)C(=O)C(=O)N2CCCC[C@H]2C(=O)O[C@H]([C@H](C)C[C@@H]2CC[C@@H](OCCO)[C@H](OC)C2)CC(=O)[C@H](C)/C=C(\C)[C@@H](O)[C@@H](OC)C(=O)[C@H](C)C[C@H](C)/C=C/C=C/C=C/1C [everolimus] + C[As](C)SC[C@H](NC(=O)CC[C@H](N)C(=O)O)C(=O)NCC(=O)O [Darinaparsin] (first compound 0.02 µM, partner dose 0.4 µM) | 69.9 | 116 | 30.4 | 167 | 1110 | 36.1 | 604 |  |  | 
N#CC[C@H](C1CCCC1)n1cc(-c2ncnc3[nH]ccc23)cn1 [ruxolitinib] + C[C@]12O[C@H](C[C@]1(O)CO)n1c3ccccc3c3c4c(c5c6ccccc6n2c5c31)CNC4=O [Lestaurtinib] (first compound 1 µM, partner dose 0.004 µM) | 205 | 179 | 40.9 | 97.3 | 90.7 | 45.9 | 28.7 |  |  | 
Clc1ccc(Nc2nnc(Cc3ccncc3)c3ccccc23)cc1 [vatalanib] + Cc1cc(SCc2sc(-c3ccc(C(F)(F)F)c(F)c3)nc2C)ccc1OCC(=O)O [GW0742] (first compound 2 µM, partner dose 2 µM) |  | 112 | 155 | 107 | 126 | 55.5 | 319 | 72.5 | 55.2 | 173
CN(NC(=O)CC(=O)NN(C)C(=S)c1ccccc1)C(=S)c1ccccc1 + Cc1cc(SCc2sc(-c3ccc(C(F)(F)F)c(F)c3)nc2C)ccc1OCC(=O)O [GW0742] (first compound 0.006 µM, partner dose 2 µM) | 85 |  | 35.4 | 60.5 | 54.4 | 36.2 | 171 |  | 90 | 40.8
C=CCn1c(=O)c2cnc(Nc3ccc(N4CCN(C)CC4)cc3)nc2n1-c1cccc(C(C)(C)O)n1 + C/C(O)=C(\C#N)C(=O)Nc1cc(Br)ccc1Br [LFM-A13] (first compound 0.02 µM, partner dose 2 µM) |  | 109 | 203 | 47.6 | 94.8 | 66.2 | 195 |  | 61.2 | 94.3
CC(C)C[C@H](NC(=O)[C@H](Cc1ccccc1)NC(=O)c1cnccn1)B(O)O [Bortezomib] + Cc1cc(SCc2sc(-c3ccc(C(F)(F)F)c(F)c3)nc2C)ccc1OCC(=O)O [GW0742] (first compound 0.001 µM, partner dose 2 µM) |  | 100 | 53.7 | 109 | 39.2 | 29.6 | 144 | 102 | 78.9 | 316
COc1cc([C@@H]2c3cc4c(cc3[C@@H](O[C@@H]3O[C@@H]5CO[C@@H](C)O[C@H]5[C@H](O)[C@H]3O)[C@H]3COC(=O)[C@H]23)OCO4)cc(OC)c1O [etoposide] + N.N.[Cl][Pt][Cl] [cisplatin] (first compound 0.02 µM, partner dose 1.6 µM) |  | 99.1 | 64.1 | 119 | 93 | 126 | 82.4 | 105 |  | 
C[C@]12O[C@H](C[C@]1(O)CO)n1c3ccccc3c3c4c(c5c6ccccc6n2c5c31)CNC4=O [Lestaurtinib] + N.N.[Cl][Pt][Cl] [cisplatin] (first compound 0.004 µM, partner dose 1.6 µM) | 85.3 | 124 | 80 | 96.4 | 89.4 | 64.3 | 92 |  |  | 
C[C@]12O[C@H](C[C@]1(O)CO)n1c3ccccc3c3c4c(c5c6ccccc6n2c5c31)CNC4=O [Lestaurtinib] + C#Cc1cccc(Nc2ncnc3cc(OCCOC)c(OCCOC)cc23)c1 [erlotinib] (first compound 0.004 µM, partner dose 0.8 µM) | 109 | 392 | 85.8 | 160 | 94.3 | 226 | 196 |  |  | 
COCC[n+]1c2c(n(Cc3cnccn3)c1C)C(=O)c1ccccc1C2=O + O=C(Oc1ccc([N+](=O)[O-])cc1)N1CCC(C(O)(c2ccc3c(c2)OCO3)c2ccc3c(c2)OCO3)CC1 [JZL184] (first compound 0.0004 µM, partner dose 1 µM) |  | 113 | 212 | 24.8 | 129 | 48.1 | 86.6 |  | 77 | 192
COc1ccc(COc2ccc(Cc3cnc(N)nc3N)cc2OC)cc1 + O=C(Oc1ccc([N+](=O)[O-])cc1)N1CCC(C(O)(c2ccc3c(c2)OCO3)c2ccc3c(c2)OCO3)CC1 [JZL184] (first compound 1 µM, partner dose 1 µM) |  | 206 | 81.3 | 97.2 | 115 | 25.8 | 370 |  | 63.3 | 155

Quoted from the listing.
cleaved PARP positive nuclei fraction (UACC257) [%] with Clc1ccc(Nc2nnc(Cc3ccncc3)c3ccccc23)cc1 [vatalanib] + Cc1cc(SCc2sc(-c3ccc(C(F)(F)F)c(F)c3)nc2C)ccc1OCC(=O)O [GW0742] (first compound 2 µM, partner dose 2 µM) reads 173
cleaved PARP positive nuclei fraction (RPMI7951) [%] with CC(C)C[C@H](NC(=O)[C@H](Cc1ccccc1)NC(=O)c1cnccn1)B(O)O [Bortezomib] + Cc1cc(SCc2sc(-c3ccc(C(F)(F)F)c(F)c3)nc2C)ccc1OCC(=O)O [GW0742] (first compound 0.001 µM, partner dose 2 µM) reads 53.7
